Data on two substances can be found in paper doi:10.1101/2025.01.27.635100 (bioRxiv, 2025).

By UniProt entry, the sequences of proteins in these tests, tags left out. Where a name states a change or a piece, a line headed by the entry shows the natural chain unless it says otherwise. Residues count along the entry.
UniProt Q9NWS0: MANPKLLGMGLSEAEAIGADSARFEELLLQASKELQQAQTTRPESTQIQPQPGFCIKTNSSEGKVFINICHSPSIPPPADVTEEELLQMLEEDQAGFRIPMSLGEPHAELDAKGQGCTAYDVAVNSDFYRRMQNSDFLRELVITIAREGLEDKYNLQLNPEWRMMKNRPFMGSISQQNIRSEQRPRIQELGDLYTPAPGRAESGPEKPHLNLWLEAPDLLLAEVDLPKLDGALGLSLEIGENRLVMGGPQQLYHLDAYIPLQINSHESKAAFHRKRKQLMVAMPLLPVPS
UniProt Q9H6T3, residues 396-455: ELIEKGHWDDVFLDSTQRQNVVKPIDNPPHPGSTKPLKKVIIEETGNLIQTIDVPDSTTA
UniProt Q9Y265: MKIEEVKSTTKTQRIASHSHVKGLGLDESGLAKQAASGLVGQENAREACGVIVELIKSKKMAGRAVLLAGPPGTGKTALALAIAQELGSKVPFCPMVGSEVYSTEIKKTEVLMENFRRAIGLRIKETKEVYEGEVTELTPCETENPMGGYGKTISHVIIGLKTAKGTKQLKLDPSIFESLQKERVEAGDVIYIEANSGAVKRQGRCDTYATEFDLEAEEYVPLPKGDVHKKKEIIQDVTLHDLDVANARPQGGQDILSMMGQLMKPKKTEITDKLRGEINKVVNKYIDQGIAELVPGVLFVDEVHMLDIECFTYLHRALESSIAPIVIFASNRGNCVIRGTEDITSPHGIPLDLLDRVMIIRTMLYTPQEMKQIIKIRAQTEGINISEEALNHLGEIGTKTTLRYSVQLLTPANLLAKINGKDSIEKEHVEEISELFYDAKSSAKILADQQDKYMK
UniProt Q9Y230: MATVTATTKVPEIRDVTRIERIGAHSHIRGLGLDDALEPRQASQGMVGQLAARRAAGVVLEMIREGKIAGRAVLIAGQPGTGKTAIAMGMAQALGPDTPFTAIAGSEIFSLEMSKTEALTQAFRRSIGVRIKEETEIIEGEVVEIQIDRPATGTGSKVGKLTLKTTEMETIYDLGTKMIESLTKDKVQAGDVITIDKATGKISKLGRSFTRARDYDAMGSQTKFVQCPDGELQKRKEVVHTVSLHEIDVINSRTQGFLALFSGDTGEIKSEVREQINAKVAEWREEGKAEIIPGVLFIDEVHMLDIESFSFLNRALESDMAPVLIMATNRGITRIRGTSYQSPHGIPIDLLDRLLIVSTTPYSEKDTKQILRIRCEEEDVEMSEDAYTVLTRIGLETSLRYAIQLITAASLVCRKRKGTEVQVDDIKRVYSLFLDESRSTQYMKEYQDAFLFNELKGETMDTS

Assay in all cases: pull-down
The target of one assay is His-P1 (PIH1D1) (human) (UniProt Q9NWS0).
Assay [1] addresses T1, His-S1 (full-length SPAG1) (human) (UniProt Q07617).
T1 sequence: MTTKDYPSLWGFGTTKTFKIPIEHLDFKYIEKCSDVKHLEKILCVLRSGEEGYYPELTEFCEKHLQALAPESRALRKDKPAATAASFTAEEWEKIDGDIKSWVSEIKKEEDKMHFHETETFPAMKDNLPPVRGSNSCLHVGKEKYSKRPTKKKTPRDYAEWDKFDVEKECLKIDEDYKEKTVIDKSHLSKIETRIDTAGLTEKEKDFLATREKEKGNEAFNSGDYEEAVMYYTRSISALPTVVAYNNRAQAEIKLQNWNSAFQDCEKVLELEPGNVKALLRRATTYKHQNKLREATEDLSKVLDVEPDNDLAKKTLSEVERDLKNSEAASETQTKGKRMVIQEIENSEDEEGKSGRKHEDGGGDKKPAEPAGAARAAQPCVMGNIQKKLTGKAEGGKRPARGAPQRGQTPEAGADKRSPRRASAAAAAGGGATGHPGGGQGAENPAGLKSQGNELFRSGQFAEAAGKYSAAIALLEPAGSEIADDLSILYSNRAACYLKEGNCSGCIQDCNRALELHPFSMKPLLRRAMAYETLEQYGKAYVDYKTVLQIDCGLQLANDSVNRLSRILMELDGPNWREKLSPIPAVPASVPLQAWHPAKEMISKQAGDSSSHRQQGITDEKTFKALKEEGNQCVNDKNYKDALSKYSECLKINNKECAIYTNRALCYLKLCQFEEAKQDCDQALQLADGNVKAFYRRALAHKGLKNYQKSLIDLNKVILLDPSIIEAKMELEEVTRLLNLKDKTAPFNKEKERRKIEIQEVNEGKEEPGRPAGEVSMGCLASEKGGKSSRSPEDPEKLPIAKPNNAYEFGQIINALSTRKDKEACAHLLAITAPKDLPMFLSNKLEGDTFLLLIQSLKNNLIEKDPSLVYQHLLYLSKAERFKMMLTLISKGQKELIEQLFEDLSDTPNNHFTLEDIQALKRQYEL

In assay [2] the target is T2, His-S1_(796-926) (His-S1_C), C-terminal domain of SPAG1 (human) (UniProt Q07617).
T2 sequence: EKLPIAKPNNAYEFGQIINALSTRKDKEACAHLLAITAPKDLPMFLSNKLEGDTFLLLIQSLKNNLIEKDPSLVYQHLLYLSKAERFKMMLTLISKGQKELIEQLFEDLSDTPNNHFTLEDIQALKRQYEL

These are yes or no findings as the source states them, for the method shown. Binding seen in cells or lysates may run through a third protein. Some binding calls cover weakened binding; strength is not graded here. For part of these data: Sequences can lack the tags named with a protein.

As for “R3_(396-455), fragment of RPAP3 (from UniProt Q9H6T3 396-455) (domain or fragment)”, the binding result in the assay with His-P1 (PIH1D1) (human) is reported as “binds”.

On to “R1R2 complex (RUVBL1/RUVBL2) of the co-expression assays (from UniProt Q9Y265;Q9Y230)”, for which the binding entry in assay [1] and in assay [2] was “binds” in each case.
